Some of the results follow. These are further read-outs of the screen, such as a control signal, another cell line or another target. No call is given for them. The list favours compounds with an active or inconclusive main result. Words in brackets tell the shape of the fitted curve; partial curves, single points and poor fits give uncertain potencies.
Assay: Cell signaling CRE-BLA (Fsk stim)
Settings: CHO CRE-bla reporter (cAMP response element driving beta-lactamase), forskolin EC10, beta-lactamase ratio; measured here: 460 nm blue channel
How it was run: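 Titrated compounds plus EC10 NKH 477 on CHO CRE-bla cells, 3 h, 37 °C. CCF4, 2 h RT. Ratio 460/530 nm → AC50.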

| SMILES | AC50 |
| --- | --- |
| CCCc1ccc(Oc2c(-c3ccc(O)c(C)c3O)n[nH]c2C)cc1 | 25.1 µM [falling, single point] |
| CCCn1c(=O)c2c(nc(Br)n2CCC)n(C)c1=O | 10 µM [rising, partial curve] |
| O=C(CC1Nc2ccccc2NC1=O)Nc1ccccc1 (stereo not drawn) | 10 µM [rising, partial curve] |
| CC(C)N(Cc1ccccc1)C(=O)COC(=O)c1ccc2c(c1)OCCO2 | 5.01 µM [falling, partial curve] |
| COc1ccc(CC(=O)Nc2cccc(-c3nnc(-c4ccc(C)cc4)o3)c2)cc1OC | 5.01 µM [falling, single point] |
| CCN(Cc1ccccc1)C(c1ccccn1)c1nnnn1C(C)(C)CC (stereo not drawn) | 0.00316 µM [falling, full curve, poor fit] |
| Cc1ccc(Oc2cc(C)nc(-c3ccccc3O)n2)cc1 | 12.6 µM [rising, single point] |
| COc1cc2c(cc1OC)-c1nnc(C)n1C1(CCCC1)C2 | 10 µM [rising, partial curve] |
| Cc1cccc(-c2c3c(=O)n(C)c(=O)n(C)c3cn2C(C)C)c1 | 10 µM [rising, partial curve] |
| O=C(O)CCC(=O)N1CCN(c2ccccn2)CC1 | 0.01 µM [falling, full curve, poor fit] |
| CCN1c2ccccc2NC2N=C(OC)C(c3ccccc3)C21 (stereo not drawn) | 10 µM [rising, partial curve] |
| COc1ccc(C2=NOC(C(=O)NCc3ccc(F)cc3)C2)cc1OC (stereo not drawn) | 12.6 µM [rising, partial curve] |
| Cc1ccccc1OCC1Cn2c(nc3c2c(=O)[nH]c(=O)n3C)O1 (stereo not drawn) | 20 µM [rising, single point] |
| COc1ccccc1Nc1nnc(SCC(=O)N2CCCC2=O)s1 | 5.01 µM [falling, single point] |
| COc1ccc(OC)c(NC(=O)c2ccc(S(=O)(=O)N3CCN(C)CC3)cc2)c1 | 12.6 µM [rising, single point] |
| CN1C(=O)NC(NC(=O)c2cccs2)(C(F)(F)F)C1=O (stereo not drawn) | 0.398 µM [falling, partial curve] |
| COc1cccc(Cn2c(=O)c(-c3cccc(C#N)c3)nc3cnc(OC)nc32)c1 | 3.16 µM [rising, full curve, poor fit] |
| O=C(Nc1ccccc1)c1ccc2nc(-c3ccco3)c(-c3ccco3)nc2c1 | 12.6 µM [rising, single point] |
| CCOCCCN(C(=O)Nc1ccc(CC)cc1)C1CCN(C(C)=O)CC1 | 25.1 µM [rising, single point] |
| CCCCCn1c(SCCC(C)C)nc2c1c(=O)[nH]c(=O)n2C | 15.8 µM [rising, partial curve] |
| O=C(CSc1nc2ccccc2[nH]1)NCCN1CCCCC1 | 0.1 µM [rising, partial curve, poor fit] |
| CCN(CCCNc1ncnc2nc[nH]c12)c1cccc(C)c1 | 5.01 µM [rising, full curve] |
| [O-]/[N+](=C\c1ccncc1)c1ccccc1 | 5.01 µM [falling, partial curve] |

Compounds listed so far containing fluorine, in the order listed:

| SMILES | AC50 |
| --- | --- |
| COc1ccc(C2=NOC(C(=O)NCc3ccc(F)cc3)C2)cc1OC (stereo not drawn) | 12.6 µM [rising, partial curve] |
| CN1C(=O)NC(NC(=O)c2cccs2)(C(F)(F)F)C1=O (stereo not drawn) | 0.398 µM [falling, partial curve] |

The list goes on.

| SMILES | AC50 |
| --- | --- |
| CCCCOC(=O)C1=C(C)Nc2ncnn2C1c1cc(OC)ccc1OC (stereo not drawn) | 0.316 µM [falling, partial curve] |
| O=C(Nc1ccn(-c2ccccc2)n1)c1ccc(S(=O)(=O)N2CCCCCC2)cc1 | 0.398 µM [falling, full curve] |
| Cc1ccc(S(=O)(=O)Nc2cc(C(=O)N3CCOCC3)ccc2N2CCCCC2)cc1 | 6.31 µM [rising, partial curve] |
| CCOCCCNC(=O)c1c[nH]c2cc(C)ccc2c1=O | 3.98 µM [falling, single point] |
| CCOc1ccccc1NC(=O)c1ccc(F)c(S(=O)(=O)N2CCC3(CC2)OCCO3)c1 | 25.1 µM [rising, single point] |
| CCN(CC)S(=O)(=O)c1ccc2nc(CSc3nnnn3-c3ccc(O)cc3)[nH]c2c1 | 0.00398 µM [falling, full curve, poor fit] |
| Cc1c(-n2cc(C(=O)O)c(=O)c3cc(F)c(N4CCCC4)c(F)c32)c(=O)n(-c2ccccc2)n1C | 10 µM [rising, partial curve] |
| CC(C(=O)OCn1nnc2ccccc2c1=O)N1C(=O)c2ccccc2C1=O (stereo not drawn) | 0.794 µM [falling, single point] |
| CCN(CC)c1nc(Nc2ccccc2)nc(Oc2ccc(=O)n(C)n2)n1 | 2.51 µM [rising, partial curve] |
| COC(=O)c1cc(NC2c3ncccc3C(=O)N2Cc2ccccc2)cc(C(=O)OC)c1 (stereo not drawn) | 2.51 µM [rising, partial curve, poor fit] |
| O=C(NC(NC1CCS(=O)(=O)C1)C(=O)c1ccccc1)c1ccc(Cl)cc1 (stereo not drawn) | 0.1 µM [falling, full curve, poor fit] |
| CC(=O)c1cc(C)ccc1OC(=O)c1cccc2nc(C)oc12 | 1 µM [rising, full curve] |
| Cc1ccc(-c2nc(-c3nccc4ccccc34)oc2-c2ccccc2)cc1 | 0.0251 µM [falling, single point] |
| CCOc1ccc(Nc2nc(C)cc(C)c2C#N)cc1 | 25.1 µM [rising, single point] |
| COc1ccc(CNc2cc(-c3cccc(C#N)c3)ncn2)c(OC)c1 | 7.94 µM [rising, partial curve] |
| CCc1cc(C=NC2CCCCC2)c(O)s1 | 0.398 µM [falling, partial curve] |
| COC(=O)c1nc(-c2ccccc2)oc1N(C)C | 10 µM [rising, single point] |
| CN1CCN(c2ncc3ncc(=O)n(-c4ccccc4)c3n2)CC1 | 12.6 µM [rising, partial curve, poor fit] |
| N[C@@H](Cc1ccccc1)c1nnc(SCc2ccccc2F)o1 | 5.01 µM [falling, single point] |
| CCOC(=O)c1sc(=S)n2c1[nH]c(=O)c1ccc(C(=O)OC)cc12 | 0.316 µM [rising, full curve, poor fit] |
| Cc1ccc(C)c(N2CCN(C(=O)CCS(=O)(=O)c3cccc4nonc34)CC2)c1 | 0.00398 µM [falling, full curve, poor fit] |
| CN(C)c1ncnc2ccc(-c3ccccc3C#N)cc12 | 2.51 µM [rising, full curve] |
| Cc1sc2nc(SCC(=O)NCCO)n(C)c(=O)c2c1C | 12.6 µM [rising, partial curve] |

| SMILES | AC50 |
| --- | --- |
| O=C(Nn1cnnc1)c1ccccc1-c1ccccc1 | 0.00398 µM [falling, partial curve, poor fit] |
| Cc1cc(C)c(C(=O)COC(=O)Cn2cnnn2)cc1C | 0.01 µM [falling, full curve, poor fit] |
| COc1ccc(OC)c(C(C)NC(=O)c2ccco2)c1 (stereo not drawn) | 0.316 µM [rising, partial curve] |
| Cc1ccc(-c2[nH]nc3c2C(c2cccnc2)C(C#N)=C(N)O3)cc1 (stereo not drawn) | 10 µM [rising, partial curve] |
| N=C(N)S/C=C\C(=O)O | 7.94 µM [rising, partial curve, poor fit] |
| COC(=O)[C@@]1(Cc2ccc(F)cc2)[C@H]2c3cc(C(=O)N(C)C)n(Cc4cc(C)n(C)n4)c3C[C@H]2CN1C(=O)c1ccccc1 | 1.26 µM [rising, partial curve] |
| Cc1cc(NC(=O)c2cnn3c(C(F)F)cc(C4CC4)nc23)no1 | 2 µM [rising, single point] |
| C=CCNc1oc(-c2ccc(OC)cc2)nc1C#N | 15.8 µM [rising, single point] |
| C=CCNC(=O)C1CCCN(S(C)(=O)=O)C1 (stereo not drawn) | 25.1 µM [falling, single point] |
| O=C(CC(SCc1ccco1)c1ccc(O)cc1)c1cccs1 (stereo not drawn) | 0.126 µM [falling, full curve] |
| O=C(O)C1C2C=CC(C2)C1C(=O)Nc1ccc(C(=O)N2CCCCC2)cc1 (stereo not drawn) | 0.00398 µM [falling, full curve, poor fit] |
| COc1ccc(-c2nn3cnnc3s2)cc1OC | 7.94 µM [rising, partial curve] |
| Cc1c(C(=O)Nc2cnccn2)oc2ccccc12 | 10 µM [rising, single point] |
| COC(=O)C1=C(C)NC(C)=C(C(=O)OC)C1C(=O)OC1CCCCC1=O (stereo not drawn) | 3.98 µM [falling, partial curve] |
| Brc1ccc(CSc2nnc(Cc3c[nH]c4ccccc34)o2)cc1 | 12.6 µM [falling, partial curve] |
| O=C(NCc1ccco1)c1cnn2c(C(F)(F)F)cc(-c3ccccc3)nc12 | 10 µM [rising, partial curve] |
| CCN(CC)CCOc1ncnc2c1oc1ccccc12 | 0.126 µM [falling, full curve, poor fit] |
| CCN(c1ccc(OC)cc1)S(=O)(=O)c1ccc2c(c1)CCN2C(=O)CCC(=O)O | 0.01 µM [falling, full curve, poor fit] |
| CN(C)c1ccc(/C=C2/C(=O)Nc3ccccc32)cc1 | 20 µM [falling, partial curve] |
| O=C(Nc1ccccc1)N1CCCC2(CCN(C(=O)c3cc(C(F)(F)F)cc(C(F)(F)F)c3)CC2)C1 | 10 µM [falling, single point] |
| Cn1c(=O)[nH]c(=O)c2c1nc(N1CCCC1)n2CCCSc1nc2ccccc2o1 | 5.01 µM [rising, partial curve] |
| COc1ccc(C/C(O)=C(\C#N)c2nc3ccccc3[nH]2)cc1OC | 3.16 µM [rising, full curve] |
